These are yes or no findings as the source states them, for the method shown. In cells and extracts the contact can be indirect. Here binding means that the protein was enriched with, or labelled near, the bait; the list need not be complete. A no says only that the protein was not detected with the bait.

By UniProt entry, the sequences of proteins in these tests, tags left out. Where a name states a change or a piece, a line headed by the entry shows the natural chain unless it says otherwise. Chains listed by the source or under a name are the forms on record and can include a tag or linker.
UniProt P07451: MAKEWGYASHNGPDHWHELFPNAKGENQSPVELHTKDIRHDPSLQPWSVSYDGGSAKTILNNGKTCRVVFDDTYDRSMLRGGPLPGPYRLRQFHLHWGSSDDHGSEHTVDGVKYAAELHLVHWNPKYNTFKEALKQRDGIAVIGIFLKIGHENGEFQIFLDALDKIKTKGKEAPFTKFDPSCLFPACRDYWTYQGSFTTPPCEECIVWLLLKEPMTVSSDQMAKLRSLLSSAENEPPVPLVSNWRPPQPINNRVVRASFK
N-terminus-tagged mutCA3 (P07451, form named): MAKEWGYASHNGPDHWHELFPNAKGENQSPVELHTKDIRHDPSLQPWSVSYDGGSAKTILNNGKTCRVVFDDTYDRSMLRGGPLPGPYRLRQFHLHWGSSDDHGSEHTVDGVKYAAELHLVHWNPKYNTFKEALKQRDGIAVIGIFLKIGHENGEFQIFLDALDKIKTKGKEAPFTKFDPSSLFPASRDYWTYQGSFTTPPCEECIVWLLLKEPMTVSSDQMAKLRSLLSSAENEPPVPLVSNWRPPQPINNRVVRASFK
UniProt P0DMV8: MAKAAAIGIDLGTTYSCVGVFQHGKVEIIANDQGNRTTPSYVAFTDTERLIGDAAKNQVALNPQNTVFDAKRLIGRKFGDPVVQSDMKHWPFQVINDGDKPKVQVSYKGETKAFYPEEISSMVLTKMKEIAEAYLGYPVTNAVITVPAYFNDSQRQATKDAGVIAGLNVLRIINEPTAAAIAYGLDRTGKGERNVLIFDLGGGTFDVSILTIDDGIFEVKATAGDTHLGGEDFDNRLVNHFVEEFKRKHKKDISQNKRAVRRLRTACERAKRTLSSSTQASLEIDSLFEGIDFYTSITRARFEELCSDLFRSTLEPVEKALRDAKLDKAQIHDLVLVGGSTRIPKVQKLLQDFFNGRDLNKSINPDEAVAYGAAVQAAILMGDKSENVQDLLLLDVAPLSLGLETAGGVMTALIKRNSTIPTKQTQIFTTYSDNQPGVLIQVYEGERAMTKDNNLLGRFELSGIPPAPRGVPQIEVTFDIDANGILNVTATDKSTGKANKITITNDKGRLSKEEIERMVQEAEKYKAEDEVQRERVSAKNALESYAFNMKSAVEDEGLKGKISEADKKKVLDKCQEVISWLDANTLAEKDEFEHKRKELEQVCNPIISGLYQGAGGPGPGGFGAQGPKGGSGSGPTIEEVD
UniProt O95817: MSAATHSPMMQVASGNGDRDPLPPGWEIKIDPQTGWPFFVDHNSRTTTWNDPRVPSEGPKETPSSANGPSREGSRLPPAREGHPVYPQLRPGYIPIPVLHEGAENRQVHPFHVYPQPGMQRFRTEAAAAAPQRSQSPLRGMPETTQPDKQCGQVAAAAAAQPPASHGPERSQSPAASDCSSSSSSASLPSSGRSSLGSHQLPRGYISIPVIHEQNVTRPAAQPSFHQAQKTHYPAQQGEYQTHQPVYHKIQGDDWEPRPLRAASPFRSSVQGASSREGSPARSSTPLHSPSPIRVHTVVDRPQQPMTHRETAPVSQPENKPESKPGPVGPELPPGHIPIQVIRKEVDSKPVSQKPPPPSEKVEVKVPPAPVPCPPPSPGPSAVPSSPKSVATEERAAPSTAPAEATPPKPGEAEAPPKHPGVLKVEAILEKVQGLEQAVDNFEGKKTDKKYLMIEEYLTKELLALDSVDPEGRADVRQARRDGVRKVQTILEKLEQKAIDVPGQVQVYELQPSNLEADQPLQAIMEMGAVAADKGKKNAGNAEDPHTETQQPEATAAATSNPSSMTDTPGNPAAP
UniProt P11142: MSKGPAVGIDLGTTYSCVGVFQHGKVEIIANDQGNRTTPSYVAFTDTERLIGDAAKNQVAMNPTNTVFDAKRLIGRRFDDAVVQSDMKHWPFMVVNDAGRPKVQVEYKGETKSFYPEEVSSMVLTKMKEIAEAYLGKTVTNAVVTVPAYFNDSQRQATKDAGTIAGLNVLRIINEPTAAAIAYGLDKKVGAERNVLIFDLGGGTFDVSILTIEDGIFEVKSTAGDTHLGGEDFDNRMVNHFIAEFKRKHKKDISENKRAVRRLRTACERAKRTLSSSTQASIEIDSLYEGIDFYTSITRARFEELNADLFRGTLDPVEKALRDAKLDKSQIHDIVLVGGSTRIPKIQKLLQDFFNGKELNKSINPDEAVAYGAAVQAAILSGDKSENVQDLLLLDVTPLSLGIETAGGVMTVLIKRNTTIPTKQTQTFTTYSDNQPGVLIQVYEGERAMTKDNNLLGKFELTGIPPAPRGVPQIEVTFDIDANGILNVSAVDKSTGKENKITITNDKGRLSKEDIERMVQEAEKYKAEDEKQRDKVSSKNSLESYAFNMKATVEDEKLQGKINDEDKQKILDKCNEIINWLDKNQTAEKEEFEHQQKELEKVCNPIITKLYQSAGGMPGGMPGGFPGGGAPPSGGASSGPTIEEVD
UniProt P49792: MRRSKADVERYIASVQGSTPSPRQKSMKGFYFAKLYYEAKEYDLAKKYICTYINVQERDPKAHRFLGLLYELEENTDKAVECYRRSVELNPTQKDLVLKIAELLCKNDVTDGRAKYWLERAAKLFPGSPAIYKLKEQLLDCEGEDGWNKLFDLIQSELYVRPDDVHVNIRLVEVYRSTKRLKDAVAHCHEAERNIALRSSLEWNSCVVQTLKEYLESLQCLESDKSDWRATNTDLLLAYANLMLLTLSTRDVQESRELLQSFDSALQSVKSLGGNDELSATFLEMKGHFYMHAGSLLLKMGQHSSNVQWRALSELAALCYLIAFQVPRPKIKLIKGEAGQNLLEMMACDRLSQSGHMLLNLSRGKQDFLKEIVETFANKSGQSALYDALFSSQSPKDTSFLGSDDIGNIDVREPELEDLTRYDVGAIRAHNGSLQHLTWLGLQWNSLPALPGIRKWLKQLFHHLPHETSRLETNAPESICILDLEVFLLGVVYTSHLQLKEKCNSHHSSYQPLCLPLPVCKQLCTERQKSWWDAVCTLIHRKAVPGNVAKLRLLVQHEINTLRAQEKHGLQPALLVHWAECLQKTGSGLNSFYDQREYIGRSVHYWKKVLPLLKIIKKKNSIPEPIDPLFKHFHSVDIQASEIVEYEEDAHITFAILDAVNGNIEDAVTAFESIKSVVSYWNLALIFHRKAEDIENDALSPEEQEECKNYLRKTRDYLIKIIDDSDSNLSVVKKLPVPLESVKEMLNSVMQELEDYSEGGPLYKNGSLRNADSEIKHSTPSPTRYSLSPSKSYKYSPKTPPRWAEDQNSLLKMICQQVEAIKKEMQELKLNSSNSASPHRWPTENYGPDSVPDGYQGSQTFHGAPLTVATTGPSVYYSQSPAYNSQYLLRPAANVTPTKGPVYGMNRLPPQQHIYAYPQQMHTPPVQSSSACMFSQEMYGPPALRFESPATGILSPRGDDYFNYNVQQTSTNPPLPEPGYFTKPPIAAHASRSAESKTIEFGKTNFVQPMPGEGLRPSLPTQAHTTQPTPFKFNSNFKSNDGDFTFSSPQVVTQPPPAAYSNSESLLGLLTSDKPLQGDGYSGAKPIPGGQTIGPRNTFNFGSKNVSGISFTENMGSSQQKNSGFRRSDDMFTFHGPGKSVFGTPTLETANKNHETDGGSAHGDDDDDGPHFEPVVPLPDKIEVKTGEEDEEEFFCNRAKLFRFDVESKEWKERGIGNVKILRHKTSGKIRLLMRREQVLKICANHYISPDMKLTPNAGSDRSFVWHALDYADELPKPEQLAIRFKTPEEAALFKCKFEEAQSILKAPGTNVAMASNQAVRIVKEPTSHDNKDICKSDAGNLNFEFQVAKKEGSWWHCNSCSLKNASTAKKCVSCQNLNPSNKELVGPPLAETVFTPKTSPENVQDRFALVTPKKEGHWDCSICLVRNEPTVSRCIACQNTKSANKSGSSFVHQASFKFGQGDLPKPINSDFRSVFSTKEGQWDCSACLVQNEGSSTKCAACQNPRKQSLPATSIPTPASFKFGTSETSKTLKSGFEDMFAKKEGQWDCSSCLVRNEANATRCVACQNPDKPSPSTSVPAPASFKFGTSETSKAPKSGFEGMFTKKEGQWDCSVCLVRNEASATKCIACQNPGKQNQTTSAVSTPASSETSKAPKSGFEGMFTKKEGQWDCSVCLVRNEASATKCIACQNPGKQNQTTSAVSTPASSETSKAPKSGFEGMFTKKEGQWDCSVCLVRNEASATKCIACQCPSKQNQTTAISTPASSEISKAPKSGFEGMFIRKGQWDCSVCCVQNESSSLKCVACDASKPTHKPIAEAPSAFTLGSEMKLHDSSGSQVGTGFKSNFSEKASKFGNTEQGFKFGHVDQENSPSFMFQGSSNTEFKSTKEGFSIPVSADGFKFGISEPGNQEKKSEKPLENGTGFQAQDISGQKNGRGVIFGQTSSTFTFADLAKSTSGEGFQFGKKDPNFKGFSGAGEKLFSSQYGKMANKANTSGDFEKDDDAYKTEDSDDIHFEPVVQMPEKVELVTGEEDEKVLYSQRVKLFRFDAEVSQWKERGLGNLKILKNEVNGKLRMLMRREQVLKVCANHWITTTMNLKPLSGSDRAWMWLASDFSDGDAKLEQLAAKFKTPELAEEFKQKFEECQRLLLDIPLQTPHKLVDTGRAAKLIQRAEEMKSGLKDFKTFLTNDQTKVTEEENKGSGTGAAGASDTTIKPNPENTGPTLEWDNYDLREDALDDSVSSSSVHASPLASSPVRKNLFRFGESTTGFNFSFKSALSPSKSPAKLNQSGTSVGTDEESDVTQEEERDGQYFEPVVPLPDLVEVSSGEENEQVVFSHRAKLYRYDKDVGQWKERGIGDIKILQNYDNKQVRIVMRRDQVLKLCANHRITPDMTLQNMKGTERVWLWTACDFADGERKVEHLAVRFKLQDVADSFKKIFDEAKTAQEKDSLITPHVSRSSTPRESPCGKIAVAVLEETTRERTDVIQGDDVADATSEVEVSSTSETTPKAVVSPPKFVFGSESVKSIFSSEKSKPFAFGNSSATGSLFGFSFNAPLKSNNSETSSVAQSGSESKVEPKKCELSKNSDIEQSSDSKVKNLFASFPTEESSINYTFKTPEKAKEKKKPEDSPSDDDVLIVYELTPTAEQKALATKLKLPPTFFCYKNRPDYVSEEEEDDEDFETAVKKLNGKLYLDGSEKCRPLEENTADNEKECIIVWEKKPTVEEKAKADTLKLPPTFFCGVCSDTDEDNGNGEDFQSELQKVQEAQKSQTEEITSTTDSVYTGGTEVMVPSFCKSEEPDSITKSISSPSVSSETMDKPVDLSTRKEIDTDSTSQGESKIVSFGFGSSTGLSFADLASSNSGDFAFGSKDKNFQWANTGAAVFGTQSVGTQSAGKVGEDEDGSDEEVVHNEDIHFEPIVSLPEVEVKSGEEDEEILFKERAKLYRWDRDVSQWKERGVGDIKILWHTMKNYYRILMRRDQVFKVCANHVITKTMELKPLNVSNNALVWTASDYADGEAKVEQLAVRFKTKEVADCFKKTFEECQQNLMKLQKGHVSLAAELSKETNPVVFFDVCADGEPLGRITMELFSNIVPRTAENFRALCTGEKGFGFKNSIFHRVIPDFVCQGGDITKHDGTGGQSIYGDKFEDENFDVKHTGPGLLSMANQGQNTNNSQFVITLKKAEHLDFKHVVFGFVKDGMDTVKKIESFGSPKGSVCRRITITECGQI
UniProt P51784: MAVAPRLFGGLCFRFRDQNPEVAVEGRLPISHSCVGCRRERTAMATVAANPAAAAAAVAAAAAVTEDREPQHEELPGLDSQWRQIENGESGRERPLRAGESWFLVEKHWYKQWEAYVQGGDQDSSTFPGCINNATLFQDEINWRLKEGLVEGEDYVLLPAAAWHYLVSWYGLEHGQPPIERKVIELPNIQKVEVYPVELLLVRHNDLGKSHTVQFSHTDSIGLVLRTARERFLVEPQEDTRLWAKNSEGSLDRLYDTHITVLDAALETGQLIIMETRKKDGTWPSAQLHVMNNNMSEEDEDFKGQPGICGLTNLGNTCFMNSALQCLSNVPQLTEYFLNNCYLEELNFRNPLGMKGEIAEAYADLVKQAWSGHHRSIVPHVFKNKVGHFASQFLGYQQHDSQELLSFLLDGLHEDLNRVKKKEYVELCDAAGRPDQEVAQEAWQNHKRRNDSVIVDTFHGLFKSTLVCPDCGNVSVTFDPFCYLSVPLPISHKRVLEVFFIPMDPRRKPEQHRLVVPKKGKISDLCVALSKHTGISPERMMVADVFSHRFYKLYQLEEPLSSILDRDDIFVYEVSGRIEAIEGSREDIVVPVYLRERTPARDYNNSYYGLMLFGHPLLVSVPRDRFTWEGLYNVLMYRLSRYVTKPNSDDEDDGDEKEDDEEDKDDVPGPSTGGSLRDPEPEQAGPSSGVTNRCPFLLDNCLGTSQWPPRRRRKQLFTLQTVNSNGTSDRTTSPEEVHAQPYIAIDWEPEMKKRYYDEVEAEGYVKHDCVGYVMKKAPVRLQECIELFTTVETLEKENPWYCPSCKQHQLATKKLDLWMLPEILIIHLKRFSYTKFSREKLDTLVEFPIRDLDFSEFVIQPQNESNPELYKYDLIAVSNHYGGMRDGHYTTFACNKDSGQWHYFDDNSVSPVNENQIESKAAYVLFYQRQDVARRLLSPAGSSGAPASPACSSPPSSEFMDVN

For the first assay, the target named is C-terminus-tagged CA3 WT (carbonic anhydrase 3, wild type, HaloTag at the C-terminus) (UniProt P07451). The experiment in a line: affinity purification with mass spectrometry; HaloTag-fused CA3 or mutCA3 expressed in HEK293T; cleared lysate diluted in 1x Tris-buffered saline pH 7.5, incubated with HaloLink Resin at room temperature for 15 min, four washes, SDS elution; LC-MS label-free quantitation against the HaloTag vector only control (triplicate).
For the substance “Heat shock 70 kDa protein 1A (from UniProt P0DMV8 1-641)”, the binding result is reported as “binds”.
Same read-out and setting: the value for “Bcl2-Associated Athanogene 3 (from UniProt O95817 1-575)” was “no binding”; that for “Heat shock 70 kDa protein 8 (from UniProt P11142 1-646)” was “binds”; that for “RAS-related nuclear protein binding protein 2 (from UniProt P49792 1-3224)” was “no binding”.
Regarding “Ubiquitin specific protease 11 (from UniProt P51784 1-963) (enzyme)”, the binding entry is given as “no binding”.
Same read-out and setting: the value for Keratin 6A (from UniProt P02538 1-564) was “no binding”.

Another assay has as its target C-terminus-tagged mutCA3 (carbonic anhydrase 3 with both surface-exposed cysteines mutated to serine, HaloTag at the C-terminus) (UniProt P07451). Described as above.
For the substance “Heat shock 70 kDa protein 1A (from UniProt P0DMV8 1-641)”, the binding entry is “binds”.
Same read-out and setting: the result for “Bcl2-Associated Athanogene 3 (from UniProt O95817 1-575)” reads “no binding”.
Turning to “Heat shock 70 kDa protein 8 (from UniProt P11142 1-646)”, the binding entry is given as “binds”.
Regarding “RAS-related nuclear protein binding protein 2 (from UniProt P49792 1-3224)”, the binding entry was “no binding”.
Same read-out and setting: the value for “Ubiquitin specific protease 11 (from UniProt P51784 1-963) (enzyme)” was “no binding”.

The next assay deals with N-terminus-tagged CA3 WT (carbonic anhydrase 3, wild type, HaloTag at the N-terminus) (UniProt P07451). The description is as above.
On to “Heat shock 70 kDa protein 1A (from UniProt P0DMV8 1-641)”, for which the binding result is listed as “binds”.
On to “Heat shock 70 kDa protein 8 (from UniProt P11142 1-646)”, for which the binding entry was “binds”.
Still for that read-out and setting: the result for “RAS-related nuclear protein binding protein 2 (from UniProt P49792 1-3224)” reads “no binding”.
On the same count and under the same terms, the result for “Ubiquitin specific protease 11 (from UniProt P51784 1-963) (enzyme)” reads “no binding”.

A further assay addresses N-terminus-tagged mutCA3 (carbonic anhydrase 3 with both surface-exposed cysteines mutated to serine, HaloTag at the N-terminus) (UniProt P07451). The description is as above.
On to “Heat shock 70 kDa protein 1A (from UniProt P0DMV8 1-641)”, for which the binding result is recorded as “binds”.
For “Bcl2-Associated Athanogene 3 (from UniProt O95817 1-575)”, the binding entry is recorded as “no binding”.
On the same count and under the same terms, the value for “Heat shock 70 kDa protein 8 (from UniProt P11142 1-646)” was “binds”.
As for “RAS-related nuclear protein binding protein 2 (from UniProt P49792 1-3224)”, the binding result is “no binding”.
On the same count and under the same terms, the value for “Ubiquitin specific protease 11 (from UniProt P51784 1-963) (enzyme)” was “no binding”.
Turning to Keratin 6A (from UniProt P02538 1-564), the binding entry is “no binding”.

(Values after PMC12732632.)
